Experiment [1] has as its target FLAG-tagged mouse Pz1 (Flag-mPz1) (mouse) (UniProt E2JF22). Kind of experiment: co-IP; lysates of HEK 293 cells co-transfected with Pz1-FLAG and one tagged partner, harvested 48 h after transfection, antibody on Dynabeads Protein G, 20 min at RT, Western blot with antibodies to the tags. A general note: In western blotting, separated proteins are transferred to a membrane and probed.

Chains of the proteins cited; added tags and fusions are not shown.
UniProt E2JF22: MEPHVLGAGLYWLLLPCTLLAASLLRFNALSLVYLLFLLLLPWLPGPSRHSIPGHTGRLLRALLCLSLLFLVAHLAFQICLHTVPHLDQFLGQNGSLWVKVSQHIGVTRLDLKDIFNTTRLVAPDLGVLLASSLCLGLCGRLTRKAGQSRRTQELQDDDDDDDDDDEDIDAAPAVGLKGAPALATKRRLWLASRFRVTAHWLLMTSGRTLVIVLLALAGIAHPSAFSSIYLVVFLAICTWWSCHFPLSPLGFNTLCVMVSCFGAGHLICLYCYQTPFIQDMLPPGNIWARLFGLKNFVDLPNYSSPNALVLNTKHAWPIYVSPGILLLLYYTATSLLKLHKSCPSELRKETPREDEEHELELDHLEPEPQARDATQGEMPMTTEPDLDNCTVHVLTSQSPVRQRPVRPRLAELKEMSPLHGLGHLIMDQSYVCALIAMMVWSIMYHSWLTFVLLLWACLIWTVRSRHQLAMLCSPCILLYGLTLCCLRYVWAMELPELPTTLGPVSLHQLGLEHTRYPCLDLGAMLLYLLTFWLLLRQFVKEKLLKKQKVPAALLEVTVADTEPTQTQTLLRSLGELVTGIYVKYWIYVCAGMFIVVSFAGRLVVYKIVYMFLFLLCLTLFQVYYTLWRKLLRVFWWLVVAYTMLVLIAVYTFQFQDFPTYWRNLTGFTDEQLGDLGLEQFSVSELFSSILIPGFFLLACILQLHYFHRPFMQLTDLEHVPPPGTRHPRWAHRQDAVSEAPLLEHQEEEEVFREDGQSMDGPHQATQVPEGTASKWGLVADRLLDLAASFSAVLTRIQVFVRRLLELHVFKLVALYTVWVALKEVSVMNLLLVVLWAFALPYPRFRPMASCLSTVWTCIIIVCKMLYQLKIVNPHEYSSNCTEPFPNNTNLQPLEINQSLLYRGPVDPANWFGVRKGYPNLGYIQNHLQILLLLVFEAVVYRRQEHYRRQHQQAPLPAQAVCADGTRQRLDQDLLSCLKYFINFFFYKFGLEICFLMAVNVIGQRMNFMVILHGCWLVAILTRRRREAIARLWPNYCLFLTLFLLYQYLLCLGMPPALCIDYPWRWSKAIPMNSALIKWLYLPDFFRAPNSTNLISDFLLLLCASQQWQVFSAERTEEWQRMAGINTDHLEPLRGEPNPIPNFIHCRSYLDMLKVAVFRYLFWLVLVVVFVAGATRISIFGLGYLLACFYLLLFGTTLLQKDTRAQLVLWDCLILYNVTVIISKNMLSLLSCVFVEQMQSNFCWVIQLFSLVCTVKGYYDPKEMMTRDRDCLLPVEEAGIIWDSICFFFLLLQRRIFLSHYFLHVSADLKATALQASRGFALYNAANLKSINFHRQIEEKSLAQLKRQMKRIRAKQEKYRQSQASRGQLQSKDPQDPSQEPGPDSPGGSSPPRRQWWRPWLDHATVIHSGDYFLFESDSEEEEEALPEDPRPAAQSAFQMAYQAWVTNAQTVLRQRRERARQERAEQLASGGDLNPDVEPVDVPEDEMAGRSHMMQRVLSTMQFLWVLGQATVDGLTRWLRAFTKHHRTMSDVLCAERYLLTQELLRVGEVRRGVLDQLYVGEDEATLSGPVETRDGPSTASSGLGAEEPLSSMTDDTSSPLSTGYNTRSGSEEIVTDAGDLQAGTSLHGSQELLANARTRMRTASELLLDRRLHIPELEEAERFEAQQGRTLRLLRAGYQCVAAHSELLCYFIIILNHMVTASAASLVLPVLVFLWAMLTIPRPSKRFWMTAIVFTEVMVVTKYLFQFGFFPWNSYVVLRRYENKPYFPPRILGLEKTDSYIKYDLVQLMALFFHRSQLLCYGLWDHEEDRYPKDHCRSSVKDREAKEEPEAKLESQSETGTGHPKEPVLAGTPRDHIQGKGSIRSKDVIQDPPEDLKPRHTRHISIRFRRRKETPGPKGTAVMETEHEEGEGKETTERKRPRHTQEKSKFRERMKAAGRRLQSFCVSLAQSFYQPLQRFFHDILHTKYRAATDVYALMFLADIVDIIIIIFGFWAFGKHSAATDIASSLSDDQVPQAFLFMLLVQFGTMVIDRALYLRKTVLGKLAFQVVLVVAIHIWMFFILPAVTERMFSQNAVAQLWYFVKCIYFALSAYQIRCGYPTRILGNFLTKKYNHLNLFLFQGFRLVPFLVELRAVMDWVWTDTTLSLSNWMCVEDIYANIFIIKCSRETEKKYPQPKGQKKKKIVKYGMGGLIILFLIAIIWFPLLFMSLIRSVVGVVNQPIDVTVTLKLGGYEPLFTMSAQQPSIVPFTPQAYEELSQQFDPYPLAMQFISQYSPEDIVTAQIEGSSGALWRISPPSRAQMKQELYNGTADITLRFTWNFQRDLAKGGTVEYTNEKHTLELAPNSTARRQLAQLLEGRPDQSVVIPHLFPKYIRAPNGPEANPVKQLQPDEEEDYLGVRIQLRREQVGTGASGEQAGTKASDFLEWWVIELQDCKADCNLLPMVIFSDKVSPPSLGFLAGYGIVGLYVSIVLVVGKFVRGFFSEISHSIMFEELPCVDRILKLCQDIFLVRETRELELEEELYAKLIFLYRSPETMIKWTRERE
UniProt Q8CD54: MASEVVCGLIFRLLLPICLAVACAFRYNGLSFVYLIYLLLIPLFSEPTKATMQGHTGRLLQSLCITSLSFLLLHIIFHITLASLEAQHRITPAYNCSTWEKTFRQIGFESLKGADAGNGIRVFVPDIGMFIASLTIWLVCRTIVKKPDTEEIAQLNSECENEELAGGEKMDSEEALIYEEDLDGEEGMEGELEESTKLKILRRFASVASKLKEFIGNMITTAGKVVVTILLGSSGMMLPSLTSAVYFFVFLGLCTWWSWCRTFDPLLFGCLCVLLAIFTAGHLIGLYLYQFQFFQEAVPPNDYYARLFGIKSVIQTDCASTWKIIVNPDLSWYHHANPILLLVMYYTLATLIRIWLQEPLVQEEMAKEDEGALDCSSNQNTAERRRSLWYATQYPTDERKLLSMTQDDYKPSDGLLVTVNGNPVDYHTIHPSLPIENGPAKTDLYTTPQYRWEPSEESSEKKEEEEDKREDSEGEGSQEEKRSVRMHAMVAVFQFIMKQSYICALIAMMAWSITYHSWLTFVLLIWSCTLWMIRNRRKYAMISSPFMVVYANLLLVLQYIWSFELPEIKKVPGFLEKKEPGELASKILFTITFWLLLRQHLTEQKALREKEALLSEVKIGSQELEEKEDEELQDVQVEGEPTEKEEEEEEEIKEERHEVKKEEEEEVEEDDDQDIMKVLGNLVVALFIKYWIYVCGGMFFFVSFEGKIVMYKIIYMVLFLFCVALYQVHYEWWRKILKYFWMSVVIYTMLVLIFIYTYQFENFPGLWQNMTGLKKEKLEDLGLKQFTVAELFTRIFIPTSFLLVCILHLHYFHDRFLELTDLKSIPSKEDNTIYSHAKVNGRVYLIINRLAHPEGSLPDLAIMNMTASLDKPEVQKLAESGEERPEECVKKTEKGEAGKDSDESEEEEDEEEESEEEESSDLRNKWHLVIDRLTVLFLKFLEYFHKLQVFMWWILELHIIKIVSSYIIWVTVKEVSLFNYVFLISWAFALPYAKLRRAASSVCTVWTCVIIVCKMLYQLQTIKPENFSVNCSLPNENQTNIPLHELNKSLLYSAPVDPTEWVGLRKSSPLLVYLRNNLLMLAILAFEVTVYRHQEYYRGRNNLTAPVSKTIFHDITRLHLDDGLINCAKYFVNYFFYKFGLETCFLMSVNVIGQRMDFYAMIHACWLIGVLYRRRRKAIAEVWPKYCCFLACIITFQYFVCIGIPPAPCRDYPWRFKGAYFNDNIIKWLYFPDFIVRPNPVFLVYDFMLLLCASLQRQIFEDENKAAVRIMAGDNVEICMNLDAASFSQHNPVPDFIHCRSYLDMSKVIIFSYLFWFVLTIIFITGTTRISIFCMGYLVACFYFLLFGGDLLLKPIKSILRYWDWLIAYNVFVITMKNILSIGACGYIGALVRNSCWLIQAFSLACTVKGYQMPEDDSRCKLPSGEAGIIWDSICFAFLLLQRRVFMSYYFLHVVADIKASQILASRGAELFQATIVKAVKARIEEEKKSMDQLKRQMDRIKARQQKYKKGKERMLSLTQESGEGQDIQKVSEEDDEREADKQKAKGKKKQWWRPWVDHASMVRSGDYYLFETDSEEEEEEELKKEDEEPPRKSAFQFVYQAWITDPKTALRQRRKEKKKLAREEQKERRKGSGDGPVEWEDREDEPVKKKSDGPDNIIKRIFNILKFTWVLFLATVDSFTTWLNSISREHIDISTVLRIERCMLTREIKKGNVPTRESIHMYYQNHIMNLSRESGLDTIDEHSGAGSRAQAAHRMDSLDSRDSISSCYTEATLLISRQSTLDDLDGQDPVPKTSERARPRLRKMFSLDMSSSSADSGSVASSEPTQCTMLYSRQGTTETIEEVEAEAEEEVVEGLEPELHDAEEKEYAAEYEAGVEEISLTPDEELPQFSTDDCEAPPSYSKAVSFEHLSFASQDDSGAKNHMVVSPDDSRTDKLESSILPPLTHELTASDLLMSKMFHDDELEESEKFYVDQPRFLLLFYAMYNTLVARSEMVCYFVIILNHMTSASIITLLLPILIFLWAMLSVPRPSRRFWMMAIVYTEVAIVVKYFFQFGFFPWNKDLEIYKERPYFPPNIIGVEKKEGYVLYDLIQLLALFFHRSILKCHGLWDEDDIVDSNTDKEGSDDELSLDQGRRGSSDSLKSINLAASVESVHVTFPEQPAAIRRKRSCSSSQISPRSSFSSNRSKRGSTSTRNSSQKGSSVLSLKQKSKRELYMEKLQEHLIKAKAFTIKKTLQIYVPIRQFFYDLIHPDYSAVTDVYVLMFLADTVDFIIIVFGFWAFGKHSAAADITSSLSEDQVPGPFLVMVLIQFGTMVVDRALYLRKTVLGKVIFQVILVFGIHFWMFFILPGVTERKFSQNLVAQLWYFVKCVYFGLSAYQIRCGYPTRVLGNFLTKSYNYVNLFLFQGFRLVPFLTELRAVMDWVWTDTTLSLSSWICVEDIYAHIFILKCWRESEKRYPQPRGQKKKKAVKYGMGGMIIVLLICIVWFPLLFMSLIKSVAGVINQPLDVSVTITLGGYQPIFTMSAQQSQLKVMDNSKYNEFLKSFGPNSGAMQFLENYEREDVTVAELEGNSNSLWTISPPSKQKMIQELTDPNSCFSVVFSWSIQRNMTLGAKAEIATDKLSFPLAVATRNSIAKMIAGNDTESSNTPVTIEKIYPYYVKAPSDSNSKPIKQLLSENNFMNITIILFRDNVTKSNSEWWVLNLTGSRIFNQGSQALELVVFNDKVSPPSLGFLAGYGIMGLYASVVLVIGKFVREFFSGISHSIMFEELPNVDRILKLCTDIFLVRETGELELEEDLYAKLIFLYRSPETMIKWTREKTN

In experiment [2] the target is Piezo2-GFP fusion protein (Pz2-GFP mouse) (mouse) (UniProt Q8CD54). Kind of experiment: co-IP; cochlear tissue lysates of Tmc2-AcGFP:Pz1-tdT and Tmc1-mCherry:Pz2-GFP mice, GFP antibody overnight at 4 C, Dynabeads Protein G, immunoblot with anti-tdTomato or anti-mCherry.

No constants are given. Whether binding was seen depends on the method and setting. Binding seen in cells or lysates may run through a third protein. Some binding calls cover weakened binding; strength is not graded here. Where a sequence is shown, tags or fusion partners need not be part of it.

B1: mCherry-tagged mouse Tmc2 (HEK 293) (protein, UniProt Q8R4P4 1-888)
chain: MSPQLKSLDEEGDKSARRPTRKQTSRAACPQDGHRAQSSRKDPAKGSPRPGSSRKKQMEHGSYHKGLQGQKPRKVERSLQGRKKDRRTSLKEQRASPKKEREALRKEAGKQLRKPRSTSLGSSVSTGDSLSEEELAQILEQVEEKKKLITTVRNKPWPMAKKLRELREAQAFVEKYEGALGKGKGKHLYAYRMMMAKKWVKFKRDFDNFKTQCIPWEMKIKDIESHFGSSVASYFIFLRWMYGVNLVLFGLIFGLVIIPEVLMGMPYGSIPRKTVPRAEEERAMDFSVLWDFEGYIKYSALFYGYYNNQRTIGWLRYRLPMAYFMVGVSVFGYSLMIVIRSMASNTQGSTSEGDSDSFTFSFKMFTSWDYLIGNSETADNKYVSITTSFKESIVDEQESNKEGNIHLTRFLRVLANFLILCCLCGSGYLIYFVVKRSQEFSKMQNVSWYERNEVEIVMSLLGMFCPPLFETIAALENYHPRTGLKWQLGRIFALFLGNLYTFLLALMDDVHLKLSNEEKIKNITHWTLFNYYNSSGGNESVPRPPPHPADVPRGSCWETAVGIEFMRLTVSDMLVTYLTILVGDFLRACFVRFMNHCWCWDLEAGFPSYAEFDISGNVLGLIFNQGMIWMGSFYAPGLVGINVLRLLTSMYFQCWAVMSSNVPHERVFKASRSNNFYMGLLLLVLFLSLLPVAYTVMSLPPSFDCGPFSGKNRMYDVLHETIENDFPKFLGKIFAFLANPGLIIPAILLMFLAIYYLNSVSKSLSRANAQLRKKIQALREVEKNHKSIKGKAIVTYSEDTIKNSSKNATQIHLTKEEPTSHSSSQIQTLDKKAQGPHTSSTEGGASPSTSWHHVGSQPPRGRRDSGQPQSQTYTGRSPSGKRTQRPHN
As to B1, the binding result in experiment [1] is reported as “binds”.

B2: Tmc1-mCherry fusion protein (Tmc1-mCherry transgenic mouse) (protein, UniProt Q8R4P5 1-757)
chain: MLQIQVEEKEEDTEESSSEEEEDKLPRRESLRPKRKRTRDVINEDDPEPEPEDEETRKAREKERRRRLRRGAEEEEEIDEEELERLKALLDENRQMIATVKCKPWKMEKKIEVLKEAKKFVSENEGALGKGKGKKWFAFKMMMAKKWAKFLRDFENFKAACVPWENKIKAIESQFGSSVASYFLFLRWMYGVNMVLFVLTFSLIMLPEYLWGLPYGSLPRKTVPRAEEASAANFGVLYDFNGLAQYSVLFYGYYDNKRTIGWLNFRLPLSYFLVGIMCIGYSFLVVLKAMTKNIGDDGGGDDNTFNFSWKVFCSWDYLIGNPETADNKFNSITMNFKEAIIEERAAQVEENIHLIRFLRFLANFFVFLTLGASGYLIFWAVKRSQEFAQQDPDTLGWWEKNEMNMVMSLLGMFCPTLFDLFAELEDYHPLIALKWLLGRIFALLLGNLYVFILALMDEINNKIEEEKLVKANITLWEANMIKAYNESLSGLSGNTTGAPFFVHPADVPRGPCWETMVGQEFVRLTVSDVLTTYVTILIGDFLRACFVRFCNYCWCWDLEYGYPSYTEFDISGNVLALIFNQGMIWMGSFFAPSLPGINILRLHTSMYFQCWAVMCCNVPEARVFKASRSNNFYLGMLLLILFLSTMPVLYMIVSLPPSFDCGPFSGKNRMFEVIGETLEHDFPSWMAKILRQLSNPGLVIAVILVMVLTIYYLNATAKGQKAANLDLKKKMKQQALENKMRNKKMAAARAAAAAGGQ
On to B2, for which the binding entry in experiment [2] is recorded as “binds”.

B3: mCherry-tagged mouse Tmc1 (HEK 293) (protein, UniProt Q8R4P5 1-757)
chain: B2 chain
Regarding B3, the binding result in experiment [1] was “binds”.

The values above are taken from publication PMC10371147.
